Experimental data reported in PubChem BioAssay AID602313 (National Center for Advancing Translational Sciences (NCATS), 2012).
In all, about 390,000 compounds went through this assay and about 760 (0.19%) were called active. The shares of active, inactive and inconclusive entries below differ from those in the screen. The call rests on the fitted dose curve; in most records, active means well fitted inhibition curve with a large enough effect; inconclusive means small, poorly fitted or top-dose-only effect; inactive means flat fitted curve, though single readings scatter. A potency beside an inconclusive call is a rough fit, not a confirmed value.

experiment: qHTS for Inhibitors of Vif-A3F Interactions: qHTS; conditions: HeLa A3F-eYFP + Vif (tagged APOBEC3F with the HIV-1 protein that degrades it), YFP fluorescence increase; series mostly up to 46.1 µM; further: nearly all actives have a fitted effect of over 65% in size
Summary of the method: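 Fluorescence increase (Ex 488/Em 500-530) after overnight compound treatment at 37 deg C flags inhibition of Vif-driven A3F-eYFP loss in stable HeLa A3F-eYFP/Vif cells seeded overnight beforehand.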
Potency means the concentration at half of the fitted maximal effect.

SMILES | Potency
Cc1ccc(-c2ccc(=O)n(CC(=O)N3CCC4(CC3)OCCO4)n2)cc1 | inconclusive: 35.5 µM [inhibitor, single point]
CCSc1nc2n(n1)C(c1ccc(Cl)cc1Cl)C(C(=O)Nc1ccccc1C)=C(C)N2 (centres undefined) | inconclusive: 22.4 µM [inhibitor, single point]
Cn1cc(C(=O)N2CCOCC2)c2ccccc21 | inconclusive: 35.5 µM [inhibitor, single point]
COc1ccc(CCNCc2sccc2C)cc1OC | inactive
Cc1cc(/C=C2\C(=O)NC(=O)N(c3cccc(F)c3)C2=O)c(C)n1-c1cc(C(=O)O)cc(C(=O)O)c1 | inactive
O=C1C2CCCN2C(c2cccnc2)N1c1nccs1 (centres undefined) | inconclusive: 3.98 µM [inhibitor, single point]
COc1ccc(CN2Cc3cnnn3-c3ccccc3C2c2ccccc2)cc1 (centres undefined) | inactive
Cc1ccccc1N1C(=O)NC(=O)/C(=C\c2cc(Br)c(N3CCOCC3)o2)C1=O | inconclusive: 20 µM [inhibitor, partial curve, poor fit]
Cn1c(N)c(Sc2ccccc2[N+](=O)[O-])c(=O)n(C)c1=O | inconclusive: 35.5 µM [inhibitor, single point]
COc1ccc2c(c1)cc(C(=O)N[C@@H](Cc1ccccc1)C(=O)N[C@@H](C)C(=O)O)n2C | inconclusive: 35.5 µM [inhibitor, single point]
CCN1CCN(S(=O)(=O)c2ccc(Cl)c(C(=O)Nc3ccc(C(=O)N(CC)CC)cc3)c2)CC1 | inactive
O=c1[nH]c(=O)n(-c2ccccc2)c(O)c1/C=C/C=Nc1ccccc1 | inconclusive: 25.1 µM [inhibitor, single point]
CN1C(=O)C[N+]([O-])=C(c2ccccc2)c2cc(Cl)ccc21 | inconclusive: 35.5 µM [inhibitor, single point]
Cc1cc(N(CCCl)CCCl)ccc1/C=N/N=C(\N)c1cnccn1 | inactive
O=c1[nH]c(=O)n(-c2ccc(Cl)cc2)c(O)c1C=Nc1ccc(S(=O)(=O)Nc2nccs2)cc1 | inconclusive: 35.5 µM [inhibitor, single point]
CCC1=Nc2cc(C(=O)N3CCC4(CC3)OCCO4)ccc2Sc2ccc(C)cc21 | inactive
O=C(O)Cn1cc(/C=C2\C(=O)NC(=O)N(Cc3ccco3)C2=O)c2ccccc21 | inactive
Cc1ccc2c(Cl)cc(Cl)c(O)c2n1 | inconclusive: 6.31 µM [inhibitor, single point]
Cc1cccc(N2C(=O)NC(=O)/C(=C\c3ccc4c(c3)CCCN4Cc3ccccc3)C2=O)c1 | inactive
CN1CCC(O)(c2ccc(Cl)cc2)C(C(=O)c2ccc(Cl)cc2)C1 (centres undefined) | inactive
COc1cc(OC)c(OC)cc1/C=C1/C(=O)NC(=O)N(Cc2ccccc2)C1=O | inconclusive: 22.4 µM [inhibitor, single point]
COCCNC(=O)c1c(NC(=O)c2ccc(Br)o2)n(Cc2ccccc2)c2nc3ccccc3nc12 | active: 11.2 µM

Pulled one by one from the entries so far (four):
SMILES | Potency
COc1ccc2c(c1)cc(C(=O)N[C@@H](Cc1ccccc1)C(=O)N[C@@H](C)C(=O)O)n2C | inconclusive: 35.5 µM [inhibitor, single point]
COCCNC(=O)c1c(NC(=O)c2ccc(Br)o2)n(Cc2ccccc2)c2nc3ccccc3nc12 | active: 11.2 µM
O=C(O)Cn1cc(/C=C2\C(=O)NC(=O)N(Cc3ccco3)C2=O)c2ccccc21 | inactive
COc1ccc(CCNCc2sccc2C)cc1OC | inactive

(further entries)

SMILES | Potency
CCOc1ccc(OC(=O)c2ccc3c(=O)n4c(nc3c2)CCC4)cc1 | inconclusive: 11.2 µM [inhibitor, partial curve, poor fit]
CCN1C(=O)/C(=C/c2ccc3c(c2)CCN3CCCCl)C(=O)NC1=S | inconclusive: 35.5 µM [inhibitor, single point]
CCOc1cc2c(cc1OCC)-n1cccc1C(c1ccc(C(C)C)cc1)NC2 (centres undefined) | inconclusive: 25.1 µM [inhibitor, single point]
O=c1[nH]c(=O)n(-c2cccc3ccccc23)c(O)c1/C=N/N1CCCCC1c1cccnc1 (centres undefined) | inconclusive: 17.8 µM [inhibitor, partial curve, poor fit]
CN1C(=O)C(=Cc2ccc(N3CCOCC3)o2)C(=O)N(C)C1=S | inconclusive: 2.51 µM [inhibitor, full curve, poor fit]
CCCCn1c(O)c(/C=C2/C=CC=N2)c(=O)[nH]c1=O | inconclusive: 28.2 µM [inhibitor, single point]
Fc1ccc(C2=CCN(C(c3ccc(Cl)cc3)c3nnnn3Cc3ccccc3)CC2)cc1 (centres undefined) | inconclusive: 35.5 µM [inhibitor, partial curve, poor fit]
Cc1ccc(OCCn2cccc2/C=C2/C(=O)NC(=O)N(Cc3ccco3)C2=O)cc1 | inconclusive: 2 µM [inhibitor, full curve, poor fit]
O=[N+]([O-])c1ccc(N2CCCCCC2)c2nonc12 | inconclusive: 0.562 µM [inhibitor, partial curve, poor fit]
C=CCN1C(=O)/C(=C\c2ccc(N3CCOCC3)o2)C(=O)NC1=S | inconclusive: 17.8 µM [inhibitor, partial curve, poor fit]
CCCCNC(=O)/C(C#N)=c1\s/c(=C\c2ccccc2OC(F)F)c(=O)n1CCCOC | active: 8.91 µM
Cc1cc(O)c2c(c1)C(=O)C13C(=C2O)C(=O)[C@H]2[C@@H](O)[C@@H]1[C@H]1[C@H](O)[C@@H]3C(=O)C3=C(O)c4c(O)cc(C)cc4C(=O)C312 (some centres undefined) | inconclusive: 20 µM [inhibitor, partial curve, poor fit]
CCC(C)N1C(=O)/C(=C\c2ccc(N3CCCCCC3)cc2)C(=O)NC1=S (centres undefined) | active: 22.4 µM
COC(=O)Cn1cc(/C=C2\C(=O)NC(=O)N(c3ccc(OC)cc3)C2=O)c2ccccc21 | inconclusive: 25.1 µM [inhibitor, partial curve, poor fit]
O=C(c1cc(-c2cccc(Cl)c2)on1)N1CCOCC1 | inconclusive: 35.5 µM [inhibitor, single point]
COc1cccc(N2C(=O)NC(=O)/C(=C\c3ccc([N+](=O)[O-])s3)C2=O)c1 | inconclusive: 25.1 µM [inhibitor, single point]
N#CSCC(=O)N1c2ccccc2CCc2ccccc21 | inactive
COP(=O)(OC)c1nc(-c2ccc([N+](=O)[O-])cc2)oc1N1CCCCC1 | inconclusive: 35.5 µM [inhibitor, single point]
CCCNC(=O)c1c(N)n(Cc2ccco2)c2nc3ccccc3nc12 | inconclusive: 11.2 µM [inhibitor, partial curve, poor fit]
CC(C)C1C(c2ccccc2)N(C)C(c2ccccc2)CC1(O)c1ccccc1 (centres undefined) | inconclusive: 22.4 µM [inhibitor, partial curve, poor fit]
COc1ccccc1N1C(=O)NC(=O)/C(=C/c2ccc([N+](=O)[O-])s2)C1=O | inconclusive: 25.1 µM [inhibitor, partial curve, poor fit]
COc1ccc(Nc2nc3ccc(C)cc3cc2C#N)c(OC)c1 | inconclusive: 17.8 µM [inhibitor, partial curve, poor fit]

SMILES | Potency
NCCc1ccc(OCc2ccccc2)c(OCc2ccccc2)c1 | inactive
O=c1c2ccccc2nc(/C=C/c2ccc([N+](=O)[O-])o2)n1-c1ccc(O)cc1 | inconclusive: 6.31 µM [inhibitor, partial curve, poor fit]
c1ccc(Nc2cccc3ccccc23)cc1 | inconclusive: 20 µM [inhibitor, single point]
Cc1[nH]c2ccccc2c1CN1CCCCC1 | inconclusive: 35.5 µM [inhibitor, single point]
CCN1C(=O)C(=C/C=C/c2ccco2)C(=O)N(CC)C1=S | inconclusive: 22.4 µM [inhibitor, partial curve, poor fit]
Cc1ccc(N=Cc2c(O)n(-c3ccc(C)cc3)c(=O)[nH]c2=O)cc1 | inactive
O=C1NC(=O)C2(CCCc3ccc(N(CCCl)CCCl)cc32)N1 (centres undefined) | inactive
C#CCN1CCN(c2ccc(F)cc2)CC1 | inconclusive: 35.5 µM [inhibitor, single point]
COc1c(C)cc(C(=O)C2CCCN(Cc3ccccn3)C2)cc1C (centres undefined) | inconclusive: 35.5 µM [inhibitor, single point]
CN1CCC2(CC1)C(C#N)=C(N)NC(S)=C2C#N | inconclusive: 35.5 µM [inhibitor, single point]
CCOc1ccc(CN(CCc2ccc3c(c2)OCO3)Cc2cccc(Br)c2)cc1 | inactive
O=C(NCCc1ccc(Cl)cc1)c1ccc(Nc2nc3ccccc3n3nnnc23)cc1 | inconclusive: 20 µM [inhibitor, partial curve, poor fit]
Nn1c(COc2ccc(Cl)cc2)n[nH]c1=S | inconclusive: 3.16 µM [inhibitor, single point]
O=C1c2cccc3cc([N+](=O)[O-])cc(c23)C(=O)N1c1ccccc1O | inconclusive: 35.5 µM [inhibitor, single point]
CCn1c(O)c(/C=N/NC(=O)c2ccncc2)c(=O)n(CC)c1=S | active: 7.94 µM
CN(C)c1ccc(N=Cc2c(O)n(CCC3=CCCCC3)c(=O)[nH]c2=O)cc1 | inconclusive: 2.82 µM [inhibitor, full curve, poor fit]
CN(C)C=C1C(=O)N(C2CCCCC2)C(=O)N(C2CCCCC2)C1=O | inconclusive: 25.1 µM [inhibitor, single point]
Cc1nn(Cc2ccccc2)c(C)c1C(=O)OCC(=O)Nc1ccccc1SCC#N | inconclusive: 31.6 µM [inhibitor, single point]
Cc1cccc(N2C(=O)NC(=O)/C(=C/c3cc4c(cc3[N+](=O)[O-])OCO4)C2=O)c1 | inconclusive: 35.5 µM [inhibitor, single point]
Cn1c(O)c(/C=N/NC(=O)c2ccncc2)c(=O)n(C)c1=S | inactive
